Results are given in words; binding and its absence hold for the method and conditions named. In cells and extracts the contact can be indirect. A result given as binding can be weak or reduced; the word gives no strength.
Target: Quiescin-sulfhydryl oxidase (QSOX), recombinant human (human) (UniProt O00391)
Test: pull-down; only the target purified

Amino acid sequences for entries named in this document (tags omitted). A change or cut given only in a name is not applied to a line headed by its entry. Residues count along the entry.
UniProt O00391: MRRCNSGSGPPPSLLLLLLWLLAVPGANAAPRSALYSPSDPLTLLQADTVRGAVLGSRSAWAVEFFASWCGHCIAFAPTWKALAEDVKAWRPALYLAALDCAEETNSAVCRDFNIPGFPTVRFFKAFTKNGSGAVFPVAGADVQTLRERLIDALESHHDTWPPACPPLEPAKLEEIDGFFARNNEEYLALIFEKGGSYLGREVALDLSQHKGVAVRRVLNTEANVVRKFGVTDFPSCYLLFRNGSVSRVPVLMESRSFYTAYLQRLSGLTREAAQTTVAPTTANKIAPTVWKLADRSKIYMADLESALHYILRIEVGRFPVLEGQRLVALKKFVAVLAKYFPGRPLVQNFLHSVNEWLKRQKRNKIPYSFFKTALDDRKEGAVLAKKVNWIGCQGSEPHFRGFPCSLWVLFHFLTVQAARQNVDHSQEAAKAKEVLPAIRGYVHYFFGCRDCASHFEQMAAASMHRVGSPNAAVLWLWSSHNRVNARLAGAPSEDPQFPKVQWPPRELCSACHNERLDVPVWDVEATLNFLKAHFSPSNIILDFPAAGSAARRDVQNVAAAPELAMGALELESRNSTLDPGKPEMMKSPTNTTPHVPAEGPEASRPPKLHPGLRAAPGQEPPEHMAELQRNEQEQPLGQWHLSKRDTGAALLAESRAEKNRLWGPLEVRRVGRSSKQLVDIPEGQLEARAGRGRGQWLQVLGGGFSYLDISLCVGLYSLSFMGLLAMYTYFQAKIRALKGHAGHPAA
UniProt P47852, residues 25-233: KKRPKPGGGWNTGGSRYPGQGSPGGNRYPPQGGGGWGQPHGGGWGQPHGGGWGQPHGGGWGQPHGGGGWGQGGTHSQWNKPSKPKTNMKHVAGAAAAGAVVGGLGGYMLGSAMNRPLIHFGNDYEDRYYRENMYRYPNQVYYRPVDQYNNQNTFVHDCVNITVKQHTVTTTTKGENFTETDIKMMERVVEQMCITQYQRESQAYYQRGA

“PrP^Sc from CWD (chronic wasting disease) brain homogenate (from UniProt P47852 25-233)” was tested, and the binding was “binds”.
